Experimental findings from US20230089867A1 (Novartis AG, priority 2018, published 2023) are described below.

Data set [1] in a line: general procedure: hybrid (solid and solution phase) peptide synthesis; PS-2-Chlorotrityl chloride resin; HATU (TBTU, HCTU or HATU named); HATU/HOAt/2,6-lutidine for cyclisation. As to conditions: for step yield: late stage modification step; for cyclisation yield: cyclisation step.
Data set [2] can be described thus: general procedure: hybrid (solid and solution phase) peptide synthesis; 2-Chloro trityl resin; HATU (TBTU, HCTU or HATU named); HATU/HOAt/2,6-lutidine for cyclisation. To be noted: whole synthesis, scale 1.0 mmol.

In data set [1] (trifluoroacetate), “(2S,5S,8S,13S,16R)-16-benzyl-1-(4-chloro-2-(4-(5,6,7,8-tetrahydroimidazo[1,2-a]pyrazin-3-yl)-phenoxy)benzyl)-8-(4-chlorobenzyl)-5-(methoxymethyl)-2,7,13,14-tetramethyl-1,4,7,11,14-pentaazacyclooctadecane-3,6,10,15,18-pentaone trifluoroacetate” displayed a step yield of 38% yield. In the case of “(2S,5S,8S,13S,16R)-16-benzyl-8-(4-chlorobenzyl)-1-(4-ethyl-2-(4-(1-methyl-2-(pyrrolidin-1-ylmethyl)-1H-imidazol-5-yl)phenoxy)benzyl)-5-(methoxymethyl)-2,7,13,14-tetramethyl-1,4,7,11,14-pentaazacyclooctadecane-3,6,10,15,18-pentaone hydrochloride”, the cyclisation yield in data set [1] (hydrochloride) was determined as 47%. “tert-butyl 2-((2S,5S,8S,13S,16R)-16-benzyl-1-(4-chloro-2-(4-(2-((dimethylamino)methyl)-1-methyl-1H-imidazol-5-yl)phenoxy)benzyl)-8-(4-chlorobenzyl)-2,7,13,14-tetramethyl-3,6,10,15,18-pentaoxo-1,4,7,11,14-pentaazacyclooctadecan-5-yl)acetate” came in with a cyclisation yield in data set [1] of 46%. In the case of “(4S,7S,10S,14R,16aS,20aS)-11-(4-chloro-2-(4-(2-((dimethylamino)methyl)-1-methyl-1H-imidazol-5-yl)phenoxy)benzyl)-4-(4-chlorobenzyl)-7-(methoxymethyl)-5,10,16-trimethyl-14-((6-methylpyridin-2-yl)methyl)hexadecahydrobenzo-[l][1,4,7,11,14]pentaazacyclooctadecine-2,6,9,12,15(3H)-pentaone”, in data set [1], the cyclisation yield is given as 31.1%. Turning to “(2S,5S,8S,13S,16R)-16-benzyl-1-(4-chloro-2-((2-(1-methylpiperidin-4-yl)-3-oxoisoindolin-5-yl)oxy)benzyl)-8-(4-chlorobenzyl)-5-(hydroxymethyl)-2,7,13,14-tetramethyl-1,4,7,11,14-pentaazacyclooctadecane-3,6,10,15,18-pentaone”, in data set [1], the step yield is reported as 44.6%. As for “5-(4-(2-(((2S,5S,8S,13S,16R)-16-benzyl-8-(4-chlorobenzyl)-5-(methoxymethyl)-2,7,13,14-tetramethyl-3,6,10,15,18-pentaoxo-1,4,7,11,14-pentaazacyclooctadecan-1-yl)methyl)-5-chlorophenoxy)phenyl)-N-(piperidin-4-yl)picolinamide trifluoroacetate”, the step yield in data set [1] (trifluoroacetate) is recorded as 43.2% yield. “(2S,5S,8S,13S,16R)-13-(4-aminobutyl)-16-benzyl-1-(4-chloro-2-(4-(1-methyl-2-(pyrrolidin-1-ylmethyl)-1H-imidazol-5-yl)phenoxy)benzyl)-8-(4-chlorobenzyl)-5-(methoxymethyl)-2,7,14-trimethyl-1,4,7,11,14-pentaazacyclooctadecane-3,6,10,15,18-pentaone trifluoroacetate” yielded a step yield in data set [1] (trifluoroacetate) of 28.1% yield.

In data set [2], “(6S,9S,14S,17R)-6-((S)-2-aminopropanamido)-17-benzyl-9-(4-chloro benzyl)-2,2,8,14,15-pentamethyl-4,7,11,16-tetraoxo-3-oxa-8,12,15-triazanonadecan-19-oic acid” gave an isolated mass of 526 mg and an isolated yield of 74%.

For the substance “(2S,5S,8S,13S,16R)-2-amino-16-benzyl-8-(4-chlorobenzyl)-5-(methoxymethyl)-7,13,14-trimethyl-3,6,10,15-tetraoxo-4,7,11,14-tetraazaoctadecan-18-oic acid”, the “crude purity (method not given)” value in data set [1] (whole synthesis) came to 76%. As to “(2S,5S,8S,13S,16R)-16-benzyl-1-(4-chloro-2-(4-(4-((diethylamino)methyl)-1H-1,2,3-triazol-1-yl)phenoxy)benzyl)-8-(4-chlorobenzyl)-5-(methoxymethyl)-2,7,13,14-tetramethyl-1,4,7,11,14-pentaazacyclooctadecane-3,6,10,15,18-pentaone”, the step yield in data set [1] was found to be 19%. Substance “(4S,7S,10S,14R,16aS,20aS)-14-benzyl-11-(4-chloro-2-(4-(2-((dimethylamino)methyl)-1-methyl-1H-imidazol-5-yl)phenoxy)benzyl)-4-(4-chlorobenzyl)-7-(methoxy-methyl)-5,16-dimethyl-10-(3-(3,3,4,4-tetrafluoropyrrolidin-1-yl)propyl)hexadecahydro-benzo[l][1,4,7,11,14]pentaazacyclooctadecine-2,6,9,12,15(3H)-pentaone” returned a cyclisation yield in data set [1] of 17%.
